Test results published in article PMC4081077.

How the values were obtained:
[1] = target: T1, TrfA-33 G254D/S267L (monomeric) (plasmid RK2) (UniProt P07676); assay: SPR; conditions: only slight interaction; SPR: HBS-EP (150 mM NaCl, 10 mM HEPES pH 7.4, 3 mM EDTA, 0.005% P20); recombinant protein; label: immobilized on streptavidin chip
T1 sequence (looked up, limits assumed): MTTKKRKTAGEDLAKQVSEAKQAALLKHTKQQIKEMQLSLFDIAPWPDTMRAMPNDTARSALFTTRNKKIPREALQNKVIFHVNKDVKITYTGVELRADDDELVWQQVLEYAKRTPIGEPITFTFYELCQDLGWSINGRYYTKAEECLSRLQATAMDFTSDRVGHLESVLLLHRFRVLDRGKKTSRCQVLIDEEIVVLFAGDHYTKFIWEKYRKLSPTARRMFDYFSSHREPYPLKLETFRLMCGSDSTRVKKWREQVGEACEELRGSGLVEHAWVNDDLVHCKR

[2] = target: RepE R118P (monomeric) (plasmid F) (UniProt P03856); assay: EMSA; conditions: EMSA: 40 mM HEPES-KOH pH 8, 25 mM Tris-HCl pH 7.6, 100 mM NaCl, 4% sucrose, 4 mM DTT, 80 ug/ml BSA, 32 C 20 min, 1 pmol probe, 5-20 pmol Rep, recombinant protein, label: Alexa555 3' tailed, single-stranded DNA
[3] = target: T1, TrfA-33 G254D/S267L (monomeric) (plasmid RK2); assay: AFM; conditions: recombinant protein, single-stranded DNA; for binding signal (% molecules in tripartite complex): TrfA prebound to linear iteron dsDNA, 10% or less
[4] = target: T1, TrfA-33 G254D/S267L (monomeric) (plasmid RK2); assay: gel filtration; conditions: recombinant protein, single-stranded DNA
[5] = target: T1, TrfA-33 G254D/S267L (monomeric) (plasmid RK2); assay: EMSA; conditions: EMSA: 40 mM HEPES-KOH pH 8, 25 mM Tris-HCl pH 7.6, 100 mM NaCl, 4% sucrose, 4 mM DTT, 80 ug/ml BSA, 32 C 20 min, 1 pmol probe, 5-20 pmol Rep, recombinant protein
[6] = tripartite with supercoiled plasmid

“CCACCGCTAACCTGTCTTTTAACCTGCTTTTAAACCAATATTTATAAACCTTGTTTTTAACCAGGGCTGC (double strand) [dsDNA DUEoriV]”: binds more weakly [1].

“CCACGGGGATATTTTTATAATTATTTTTTTTATAGTTTTTAGATCTTCTTTTTTAGAGC [ssDNA DUEoriS top]”: no binding ([2]; legend: binds one specific strand, bottom strand named in Fig S7).

For “CCACCGCATTGGACAGAAAATTGGACGAAAATTTGGTTATAAATTAAACCTTGTTTTTAACCAGGGCTGC [ssDNA DUEoriV bottom swap R]”, the binding signal (% molecules in tripartite complex) [3] was less than 10, the binding result [4, 6] was “binds more weakly” and the binding result ([5]; one retarded band instead of two, single-stranded DNA) was “binds more weakly”.

“GCTCTAAAAAAGAAGATCTAAAAACTATAAAAAAAATAATTATAAAAATATCCCCGTG [ssDNA DUEoriS bottom]”: binds [2].

“AAGCCGTGTGCGAGACACCGCGGCCGCCGGCGTTGTGGATACCTCGCGGAAAACTTGGCCCTCACTGACAGATGAGGGGCGGACGTTGACACTTGAGGGGCCGACTCACCCGGCGCGGCGTTGACAGATGAGGGGCAGGCTCGATTTCGGCCGGCGACGTGGAGCTGGCCAGCCTCGCAAATCGGCGAAAACGCCTGATTTTACGCGAGTTTCCCACAGATGATGTGGACAAGCCTGGGGATAAGTGCCCTGCGGTATTGACACTTGAGGGGCGCGACTACTGACAGATGAGGGGCGCGATCCTTGACACTTGAGGGGCAGAGTGCTGACAGATGAGGGGCGCACCTATTGACATTTGAGGGGCTGTCCACAGGCAGAAAATCCAGCATTTGCAAGGGTTTCCGCCCGTTTTTCGGCCACCGCTAACCTGTCTTT (double strand) [dsDNA oriV (minimal origin PCR fragment)]”: binds ([5]; five retarded bands, label: Alexa555 3' tailed, probe letters rebuilt from the primers and the genome).

For “CCACCGCATTGGACAGAAAAAACCTGCTTTTAAACCAATATTTATAAACCTTGTTTTTAACCAGGGCTGC [ssDNA DUEoriV bottom swap M1-R]”, the binding signal (% molecules in tripartite complex) [3] was less than 10 and the binding result [4, 6] was “binds more weakly”.

“CCACCGCTAACCTGTCTTTTAACCTGCTTTTAAACCAATATTTATAAACCTTGTTTTTAACCAGGGCTGC [ssDNA DUEoriV top]”: no binding ([3]; TrfA prebound to N10, tripartite count almost as low as no-ssDNA control); no binding ([4]; tripartite with supercoiled pKD19L1 1-6).

In the case of “CCACCGCATTGGACAGAAAATTGGACGAAAATAACCAATATTTATAAACCTTGTTTTTAACCAGGGCTGC [ssDNA DUEoriV bottom swap M2-R]”, the binding signal (% molecules in tripartite complex) [3] is reported as less than 10 and the binding result [4, 6] is reported as “binds more weakly”.

“AGCTCACAATTCCACACAACATACGAGCCGGAAGCATAAAGTGTAAAGCCTGGGGTGCCTAATGAGTGAGCTAACTCACATTAATTGCGTTGCGCTCACTGCCCGCTTTCCAGTCGGGAAACCTGTCGT (double strand) [dsDNA pUC18 fragment]”: binds more weakly [1].

Construct, isoform or probe ends are uncertain for at least one entry. For some assays here: No signal at the amounts used counts as a negative. For some assays here: At least one verdict was read from the data and is not stated in words by the source. For some assays here: Where a protein sequence is shown, tags need not be part of it. For some assays here: Weaker means in comparison with the reference protein, sequence or condition of that experiment. For some assays here: The direction of at least one scale is not stated here.
